Results on 42 sequences are retold here after article PMC7819943, “Rice protein-binding microarrays: a tool to detect cis-acting elements near promoter regions in rice”.

The other results are listed elsewhere or left out.

The experiment has as its target T1, OsSMF1 (Oryza sativa, UniProt Q6ZLB0 1-436).
T1 sequence: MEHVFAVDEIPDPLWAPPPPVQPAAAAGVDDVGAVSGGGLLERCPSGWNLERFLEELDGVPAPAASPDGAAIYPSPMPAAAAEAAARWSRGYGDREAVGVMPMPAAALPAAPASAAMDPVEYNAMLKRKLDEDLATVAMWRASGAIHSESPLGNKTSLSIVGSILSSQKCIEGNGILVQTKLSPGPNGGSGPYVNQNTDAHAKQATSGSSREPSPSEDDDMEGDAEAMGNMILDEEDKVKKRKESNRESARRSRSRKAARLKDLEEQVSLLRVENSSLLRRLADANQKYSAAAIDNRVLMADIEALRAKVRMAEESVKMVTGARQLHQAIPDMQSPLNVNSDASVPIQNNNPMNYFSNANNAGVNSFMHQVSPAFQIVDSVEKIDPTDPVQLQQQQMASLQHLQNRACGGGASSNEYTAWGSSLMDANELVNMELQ
Nature of the experiment: protein-binding microarray (RPBM); PBS, 2% BSA, 51.3 ng/ul salmon testes DNA, 50 uM zinc acetate, 200 nM TF, 25 C, 1 h; high values mean tight binding. The settings on record: protein: recombinant; tags: N-terminal polyhistidine and DsRed monomer fusion (pET32a); chain copies: 2; label: CyDye5-dUTP incorporated in the synthesized complementary strand; 3' TTTTT single-stranded linker to array surface; dsDNA, one strand shown. The essentials:
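A custom Agilent array was converted to double-stranded form by primer extension with Cy5-dUTP and blocked with 2% BSA. Protein at 200 nM in PBS with 2% BSA, salmon testes DNA and 50 µM zinc acetate was applied for 1 h at 25 °C, followed by washing. The proteins were polyhistidine–DsRed N-terminal fusions of transcription factors, expressed in E. coli BL21-CodonPlus and Ni–NTA-purified. The binding signal is per-feature fluorescence intensity (arbitrary units) from an Axon 4000B scanner.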
Consider “ATTGCTGCAAATAAAGTGGGGAAATGTTAATCAATGAATGCGGAGTCACCTAGTGCAG”, for which the binding signal was 31700 fluorescence intensity (a.u.). For the sequence “TGCGAGTGTGCGGCAATGCAAGTATGCAACACGCGCTCGCCGGAGTCACCTAGTGCAG”, the binding signal is 26100 fluorescence intensity (a.u.). In the case of “GGGGAGAAGTAGGAGGAGGTACGTATTGCCTATAGGCGGACGGAGTCACCTAGTGCAG”, the binding signal is 3500 fluorescence intensity (a.u.).

“GAACACACCCGAATTCGTCGTCATCCTCGACGACTTCGACCGGAGTCACCTAGTGCAG”: the binding signal was 4330 fluorescence intensity (a.u.).

For the sequence “GAGCGAGGCGAGGGTGGGGAGGCGGAGGAGGATGTCCAGGCGGAGTCACCTAGTGCAG”, the binding signal is 4580 fluorescence intensity (a.u.).

On to “TAACCCCTGCTGCGTGAGACGTGTCAATAAAGGTCAGAACCGGAGTCACCTAGTGCAG”, for which the binding signal is 3600 fluorescence intensity (a.u.). To “AGTGAAACGGTGTCAATTACTGCCTTGTCACTTACTGATGCGGAGTCACCTAGTGCAG” belongs 6800 fluorescence intensity (a.u.). Next, “GTTGTTTGTAATTTGGTATTGTAACTCCTCGCGTGGCGTGCGGAGTCACCTAGTGCAG”: 35000 fluorescence intensity (a.u.). Next, “GTGTAGTTGGAGCGCGCGGTGGAAGATGAACAAGCTCAGCCGGAGTCACCTAGTGCAG”: 41200 fluorescence intensity (a.u.); “CGTTTGTTCCTCTCACCATCGAAAACATAATAGAATACACCGGAGTCACCTAGTGCAG”: 14100 fluorescence intensity (a.u.); “AAGGCGATTAGATTAGCGAGCACCGCACACCCGAACGCCACGGAGTCACCTAGTGCAG”: 3340 fluorescence intensity (a.u.). Turning to “TAATCATATCCTACTAATCACCAGTCACCACCATGAACTTCGGAGTCACCTAGTGCAG”, the binding signal is 4820 fluorescence intensity (a.u.). Turning to “TGATAACAGACACGTATATATCAGCCTAATTTTACGGAGACGGAGTCACCTAGTGCAG”, the binding signal was 4020 fluorescence intensity (a.u.). For the sequence “TCTCTTTTGTGCTGCTGTCGAACGCAGCTACGTGTCAGTGCGGAGTCACCTAGTGCAG”, the binding signal was 8710 fluorescence intensity (a.u.). Take “CAGCTCGGACCCGTCGTGACGCGGTGACGCCGTCTCCGCCCGGAGTCACCTAGTGCAG”: the binding signal was 7440 fluorescence intensity (a.u.).

Consider “GCAAGTATCCAACTCATCTCTTTCCTTATCTCAGTCAATCCGGAGTCACCTAGTGCAG”, for which the binding signal was 4300 fluorescence intensity (a.u.). On to “TTGCTATTGTCCTGCTTCTCTTCCACCTCACCGTTGCTATCGGAGTCACCTAGTGCAG”, for which the binding signal was 5080 fluorescence intensity (a.u.).

Consider “AGCTTGGTGCGTCATGGTCCCACTGTTCATTACTTTCCTTCGGAGTCACCTAGTGCAG”, for which the binding signal was 8120 fluorescence intensity (a.u.). To “TCCCTCCAGTGACGACACAACTGAATTCGGTGCCTTCCTTCGGAGTCACCTAGTGCAG” belongs 3440 fluorescence intensity (a.u.).

Regarding “GTCCGGTTGAACGAGATCTATTGACGCTTGACTTGTCTCACGGAGTCACCTAGTGCAG”, the binding signal is 3210 fluorescence intensity (a.u.). On to “AATCGCTCGCACAGCCGCATCTTCCGCCGCCACGGCTTCTCGGAGTCACCTAGTGCAG”, for which the binding signal was 3800 fluorescence intensity (a.u.).

Regarding “CGCAAAACCCTACCTCTCCTCCACGCGGCGGCCGTCGGCGCGGAGTCACCTAGTGCAG”, the binding signal is 4080 fluorescence intensity (a.u.).

As for “CTTTCCAGCACAATTTTGCTTTCCAGTTCCGTCCGAATGGCGGAGTCACCTAGTGCAG”, the binding signal is 6830 fluorescence intensity (a.u.). “CTCTCTCTCTCAAGGAAACTCATTGCATCCGCACACGTTCCGGAGTCACCTAGTGCAG”: the binding signal was 3310 fluorescence intensity (a.u.).

As to “TCAATCTGGAAGAGTTCCCTTTTATGTGACATGCTCAAACCGGAGTCACCTAGTGCAG”, the binding signal is 4240 fluorescence intensity (a.u.).

With “CATCCAAAATATATAAGGGCGGGAGCGAGGCTATGAGAGGCGGAGTCACCTAGTGCAG”, the binding signal was 3150 fluorescence intensity (a.u.). Next, “GAATAGTAATAGCGTTTTATTAATTTGCCACATTTGCAGTCGGAGTCACCTAGTGCAG”: 3380 fluorescence intensity (a.u.).

For “ATACAATTGCACACACTCATTTATATACAAGCACATCCTCCGGAGTCACCTAGTGCAG”, the binding signal was 3360 fluorescence intensity (a.u.). Next, “TCCACATGATGCCCTCGCCAAGTCACCATGATATCATCATCGGAGTCACCTAGTGCAG”: 11500 fluorescence intensity (a.u.).

Regarding “TAATTCTCCTACTGTAACAAACTTGTCTTCAATTCCACGTCGGAGTCACCTAGTGCAG”, the binding signal was 4020 fluorescence intensity (a.u.). Turning to “ATGGAGGATGTCTGTCTCATCCATGGCGTGTAGCTAGCTACGGAGTCACCTAGTGCAG”, the binding signal was 3470 fluorescence intensity (a.u.). “ATTAATGAACTAAAATGCGTCAAATATATAACATTGATATCGGAGTCACCTAGTGCAG”: the binding signal is 23100 fluorescence intensity (a.u.).

Take “ACAAGCCCATCGTGGTAGATATGCTTTTCTCCCCAACCTCCGGAGTCACCTAGTGCAG”: the binding signal is 3220 fluorescence intensity (a.u.). As for “AAACGCCAACTGCAAGAACACCCAACACCAAACAAAGACCCGGAGTCACCTAGTGCAG”, the binding signal is 3220 fluorescence intensity (a.u.). To “CCGTCTTTTCTTTCTTCACGCCAGCGTCGCCGTGGTCAAGCGGAGTCACCTAGTGCAG” belongs 3650 fluorescence intensity (a.u.); to “ACCACCCGTGGGCCCACCTCGCCAGTCCAAACCAACGGCGCGGAGTCACCTAGTGCAG”, 3430 fluorescence intensity (a.u.); to “ACGGTGCCAGGCAGACGTGGCTGCGCGATGGGGAGGCGGCCGGAGTCACCTAGTGCAG”, 4380 fluorescence intensity (a.u.).

For “GCCAGCATGGCTGGCGCCCTCCTCCTGCCACGTCGGTTCGCGGAGTCACCTAGTGCAG”, the binding signal was 13700 fluorescence intensity (a.u.). Next, “CCTTGCTCTAAAAGATGAGCAAACGTAGCATGACGACAGCCGGAGTCACCTAGTGCAG”: 3680 fluorescence intensity (a.u.); “CCACGAACAGCTACACGTCTCCTTCTCCTTCTTCGATTTCCGGAGTCACCTAGTGCAG”: 37400 fluorescence intensity (a.u.). “TGACACACCCCTACAAGTTTAAATACTGCACGTGCACTTTCGGAGTCACCTAGTGCAG”: the binding signal is 36300 fluorescence intensity (a.u.).

For the sequence “CATGAGTCCCACATTGACTCAGCTTTGACATGTTAGCTAACGGAGTCACCTAGTGCAG”, the binding signal is 6460 fluorescence intensity (a.u.).
